Measurements reported in PubChem BioAssay AID652243 (Drosophila RNAi Screening Center, 2013).
In all, the deposit lists about 24,000 reagents; below is an unselected part of those with a known target gene and a result. Of all reagents, 246 (1%) got an active call. 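Plates not normalised; calls are printed but the firefly/Renilla ratio behind them is not deposited; fold cut for lowering reported inconsistently.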 Raw values vary from plate to plate and are shown uncorrected. Names joined by + are all predicted targets of the reagent. The record does not give: the amount of reagent.

- Aim: 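Fly genes required for human androgen receptor driven transcription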 (primary screen)
- System: Drosophila S2R+ cells
- Knock-down reagent: long dsRNA against Drosophila genes
- Timing: 72 h (48 h, then 24 h hormone)
- Treatment: synthetic androgen R1881 at 10 nM for 24 h
- Detection: 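Firefly light from an androgen-responsive reporter and Renilla control light per well, raw and unnormalised, for each of two replicates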
- Direction: firefly reporter light: higher = more light from androgen-responsive reporter; Renilla control light: higher = more constitutive control signal (cell number, transfection)
- Rule for the call: 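Hit when the log firefly-to-Renilla ratio dropped or increased by a fixed fold versus the mean of GFP or LacZ controls across duplicate plates; lowering cut given as 1.5 and as 3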
- Calls: active = hit: reporter lowered or raised; inactive = no hit

no.	gene	amplicon	firefly reporter light, replicate 1	firefly reporter light, replicate 2	Renilla control light, replicate 1	Renilla control light, replicate 2	Call
1	PpD6 (Protein phosphatase D6)	DRSC00774	84089	92929	8.18e5	6.40e5	inactive
2	PpD6 (Protein phosphatase D6)	DRSC23331	7.78e5	8.76e5	1.66e6	1.43e6	inactive
3	vkg (viking)	DRSC03632	1.71e5	1.16e5	1.80e6	9.66e5	inactive
4	v (vermilion)	DRSC20383	1.52e5	98578	6.07e5	5.20e5	inactive
5	v (vermilion)	DRSC39107	3.45e5	6.11e5	1.28e6	3.11e6	inactive
6	Cyp6t3 (Cytochrome P450 6t3)	DRSC07388	4.59e5	2.05e5	1.53e6	1.25e6	inactive
7	RabX4	DRSC22189	5.56e5	5.27e5	2.02e6	1.10e6	inactive
8	RabX4	DRSC26360	3.24e5	2.49e5	6.87e5	7.04e5	inactive
9	7SLRNA:CR42652 + 7SLRNA:CR32864	DRSC22968	7.85e5	1.15e6	5.84e5	7.88e5	inactive
10	CG5676	DRSC02875	1.87e5	2.19e5	1.17e6	1.74e6	inactive
11	Tsp86D (Tetraspanin 86D)	DRSC15607	1.89e5	2.15e5	2.53e6	3.03e6	inactive
12	Rim (Rab3 interacting molecule)	DRSC16224	2.04e5	2.72e5	2.25e6	2.24e6	inactive
13	Rim (Rab3 interacting molecule)	DRSC16226	50448	33959	4.60e5	4.05e5	inactive
14	Rim (Rab3 interacting molecule)	DRSC16227	1.87e5	1.66e5	3.41e6	3.46e6	inactive
15	Rim (Rab3 interacting molecule)	DRSC22406	4.29e5	8.46e5	6.56e5	1.34e6	inactive
16	RpL23 (Ribosomal protein L23)	DRSC04648	97459	79132	7.81e5	5.85e5	inactive
17	RpL36 (Ribosomal protein L36)	DRSC18708	1.70e5	1.84e5	1.88e6	1.74e6	inactive
18	m (miniature)	DRSC20181	2.67e5	3.34e5	2.80e6	2.61e6	inactive
19	m (miniature)	DRSC29636	1.55e5	2.63e5	7.82e5	7.82e5	inactive
20	Cdk4 (Cyclin-dependent kinase 4)	DRSC07358	4.57e5	4.68e5	1.55e6	1.70e6	inactive
21	Cdk4 (Cyclin-dependent kinase 4)	DRSC27263	1.65e5	1.24e5	4.69e5	4.75e5	inactive
22	CG31274 + MESK4	DRSC13202	3.09e5	2.46e5	5.80e5	6.18e5	inactive
23	shop (shopper)	DRSC20030	1.42e5	1.47e5	9.88e5	1.05e6	inactive
24	shop (shopper)	DRSC26764	2.30e5	1.79e5	4.22e5	4.86e5	inactive
25	RpL10Aa (Ribosomal protein L10Aa)	DRSC15518	92032	78745	1.11e6	8.11e5	inactive
26	CycG (Cyclin G)	DRSC14324	97120	1.07e5	6.74e5	5.21e5	inactive
27	CycG (Cyclin G)	DRSC23345	9.48e5	8.96e5	9.73e5	8.73e5	inactive
28	CycG (Cyclin G)	DRSC36962					inactive

5 entries from above, sorted by “firefly reporter light, replicate 2”, low to high:
gene	amplicon	firefly reporter light, replicate 1	firefly reporter light, replicate 2	Renilla control light, replicate 1	Renilla control light, replicate 2	Call
v (vermilion)	DRSC20383	1.52e5	98578	6.07e5	5.20e5	inactive
Cyp6t3 (Cytochrome P450 6t3)	DRSC07388	4.59e5	2.05e5	1.53e6	1.25e6	inactive
RabX4	DRSC26360	3.24e5	2.49e5	6.87e5	7.04e5	inactive
RabX4	DRSC22189	5.56e5	5.27e5	2.02e6	1.10e6	inactive
v (vermilion)	DRSC39107	3.45e5	6.11e5	1.28e6	3.11e6	inactive

Continued:
no.	gene	amplicon	firefly reporter light, replicate 1	firefly reporter light, replicate 2	Renilla control light, replicate 1	Renilla control light, replicate 2	Call
29	CG1103	DRSC24616	1.00e6	7.85e5	1.26e6	1.02e6	inactive
30	CG9992	DRSC20226	1.44e5	1.57e5	1.06e6	9.15e5	inactive
31	CG9992	DRSC21643	7.41e5	5.22e5	2.51e6	2.00e6	inactive
32	CG32548	DRSC19627	4.31e5	3.76e5	3.15e6	3.08e6	inactive
33	CG32548	DRSC19982	65492	56930	5.02e5	5.56e5	inactive
34	CG32548	DRSC28857	4.73e5	4.53e5	1.65e6	1.44e6	inactive
35	CG43329	DRSC11672	2.34e5	2.51e5	1.57e6	2.09e6	inactive
36	Obp47b + CG7741	DRSC06330	1.07e5	86746	4.98e5	8.14e5	inactive
37	Obp47b + CG7741	DRSC27574	3.47e5	3.42e5	7.97e5	8.37e5	inactive
38	CR44003 + CG44002	DRSC00523	8.11e5	9.55e5	1.94e6	1.73e6	inactive
39	CR44003 + CG44002	DRSC00606	1.13e5	1.73e5	8.93e5	9.48e5	inactive
40	Epac (Exchange protein directly activated by cAMP)	DRSC04969	4.29e5	3.88e5	3.02e6	3.66e6	inactive
41	Epac (Exchange protein directly activated by cAMP)	DRSC04996	1.20e6	1.00e6	2.34e6	2.27e6	inactive
42	Epac (Exchange protein directly activated by cAMP)	DRSC04997	3.64e5	3.15e5	2.00e6	1.52e6	inactive
43	CG34357	DRSC12211	61769	1.18e5	1.53e6	2.00e6	inactive
44	CG34357	DRSC12334	60655	69876	1.42e6	1.05e6	inactive
45	CG34357	DRSC23031	5.11e5	4.47e5	1.89e6	2.23e6	inactive
46	CG34357	DRSC28043	6.79e5	4.54e5	2.23e6	1.69e6	inactive
47	CG34357	DRSC28595	8.10e5	6.00e5	1.36e6	1.27e6	inactive
48	Ir60b (Ionotropic receptor 60b)	DRSC04217	2.54e5	2.78e5	1.84e6	1.65e6	inactive
49	GC2	DRSC14476	2.63e5	2.99e5	2.57e6	3.00e6	inactive
50	GC2	DRSC27370	3.10e5	3.71e5	7.58e5	7.84e5	inactive
51	kuk (kugelkern)	DRSC15730	1.28e5	1.03e5	8.35e5	8.00e5	inactive
52	kuk (kugelkern)	DRSC26235	2.90e5	2.35e5	6.95e5	6.38e5	inactive
53	CG5921	DRSC17431	6.97e5	8.69e5	1.07e6	1.05e6	inactive
54	CG5921	DRSC18390	1.74e5	1.47e5	1.91e6	1.88e6	inactive
55	CG5921	DRSC27493	2.16e5	2.49e5	5.09e5	8.49e5	inactive
56	CG7627	DRSC03065	1.01e6	1.06e6	2.27e6	2.41e6	inactive
57	CG7627	DRSC24481	6.75e5	9.03e5	7.64e5	8.15e5	inactive
58	CG7627	DRSC39013	7.44e5	8.31e5	1.89e6	1.83e6	inactive
